In patent US20140366224A1 (CONSEJO SUPERIOR DE INVESTIGACIONES CIENTIFICAS, published 2014):
These are yes or no findings as the source states them, for the method shown. For some assays here: In cells and extracts the contact can be indirect. Some results given as binding are weak or reduced against the parent protein; the word gives no strength. For some assays here: Where a sequence is shown, tags or fusion partners need not be part of it.

Tests used:
[1] = molecular target: T1, Rpb3 sub-unit from RNA Polymerase II (UniProt Q39211); experiment: in vitro pull-down (FIG. 8A)
T1 sequence (looked up): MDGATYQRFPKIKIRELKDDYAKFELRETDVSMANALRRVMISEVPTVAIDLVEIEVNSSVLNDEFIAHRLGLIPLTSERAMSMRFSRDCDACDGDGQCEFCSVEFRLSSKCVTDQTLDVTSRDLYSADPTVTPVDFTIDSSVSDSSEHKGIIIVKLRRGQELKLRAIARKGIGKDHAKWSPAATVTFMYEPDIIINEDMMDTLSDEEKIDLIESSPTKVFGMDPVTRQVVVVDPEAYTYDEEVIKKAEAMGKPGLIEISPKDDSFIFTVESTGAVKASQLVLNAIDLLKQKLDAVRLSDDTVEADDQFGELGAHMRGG

[2] = molecular target: T2, histone acetyl transferase ELO3 (UniProt Q93ZR1); experiment: in vitro interaction (FIG. 8G)
T2 sequence (looked up): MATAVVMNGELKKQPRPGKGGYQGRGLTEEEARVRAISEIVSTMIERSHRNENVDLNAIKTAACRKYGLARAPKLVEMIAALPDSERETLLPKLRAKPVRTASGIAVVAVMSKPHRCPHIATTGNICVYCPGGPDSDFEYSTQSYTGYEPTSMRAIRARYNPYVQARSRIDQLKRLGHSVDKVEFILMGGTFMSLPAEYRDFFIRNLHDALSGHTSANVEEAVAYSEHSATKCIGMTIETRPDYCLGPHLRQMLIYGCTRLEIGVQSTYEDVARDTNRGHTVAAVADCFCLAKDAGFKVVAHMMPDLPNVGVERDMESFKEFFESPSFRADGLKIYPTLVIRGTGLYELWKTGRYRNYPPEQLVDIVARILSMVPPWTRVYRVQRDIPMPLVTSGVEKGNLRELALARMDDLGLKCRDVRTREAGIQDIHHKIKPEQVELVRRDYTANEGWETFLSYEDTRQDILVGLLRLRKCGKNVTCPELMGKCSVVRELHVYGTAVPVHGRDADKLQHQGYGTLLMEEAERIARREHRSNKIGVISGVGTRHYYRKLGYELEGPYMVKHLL

[3] = molecular target: T3, IYO fused to split YFP (nYFP or cYFP) (Arabidopsis thaliana, UniProt Q8GYU3 1-1465); experiment: interaction test with truncated AtRTR1 (method not named in this paragraph)
T3 construct: BiFC construct expressed in Nicotiana benthamiana leaf epidermal cells; The position of the YFP half varied between combinations, so the order of the parts is not fixed; also called split YFP fused to IYO; not shown: nYFP or cYFP half of split YFP, fused at the N- or C-terminus (different combinations were used)
T3 sequence: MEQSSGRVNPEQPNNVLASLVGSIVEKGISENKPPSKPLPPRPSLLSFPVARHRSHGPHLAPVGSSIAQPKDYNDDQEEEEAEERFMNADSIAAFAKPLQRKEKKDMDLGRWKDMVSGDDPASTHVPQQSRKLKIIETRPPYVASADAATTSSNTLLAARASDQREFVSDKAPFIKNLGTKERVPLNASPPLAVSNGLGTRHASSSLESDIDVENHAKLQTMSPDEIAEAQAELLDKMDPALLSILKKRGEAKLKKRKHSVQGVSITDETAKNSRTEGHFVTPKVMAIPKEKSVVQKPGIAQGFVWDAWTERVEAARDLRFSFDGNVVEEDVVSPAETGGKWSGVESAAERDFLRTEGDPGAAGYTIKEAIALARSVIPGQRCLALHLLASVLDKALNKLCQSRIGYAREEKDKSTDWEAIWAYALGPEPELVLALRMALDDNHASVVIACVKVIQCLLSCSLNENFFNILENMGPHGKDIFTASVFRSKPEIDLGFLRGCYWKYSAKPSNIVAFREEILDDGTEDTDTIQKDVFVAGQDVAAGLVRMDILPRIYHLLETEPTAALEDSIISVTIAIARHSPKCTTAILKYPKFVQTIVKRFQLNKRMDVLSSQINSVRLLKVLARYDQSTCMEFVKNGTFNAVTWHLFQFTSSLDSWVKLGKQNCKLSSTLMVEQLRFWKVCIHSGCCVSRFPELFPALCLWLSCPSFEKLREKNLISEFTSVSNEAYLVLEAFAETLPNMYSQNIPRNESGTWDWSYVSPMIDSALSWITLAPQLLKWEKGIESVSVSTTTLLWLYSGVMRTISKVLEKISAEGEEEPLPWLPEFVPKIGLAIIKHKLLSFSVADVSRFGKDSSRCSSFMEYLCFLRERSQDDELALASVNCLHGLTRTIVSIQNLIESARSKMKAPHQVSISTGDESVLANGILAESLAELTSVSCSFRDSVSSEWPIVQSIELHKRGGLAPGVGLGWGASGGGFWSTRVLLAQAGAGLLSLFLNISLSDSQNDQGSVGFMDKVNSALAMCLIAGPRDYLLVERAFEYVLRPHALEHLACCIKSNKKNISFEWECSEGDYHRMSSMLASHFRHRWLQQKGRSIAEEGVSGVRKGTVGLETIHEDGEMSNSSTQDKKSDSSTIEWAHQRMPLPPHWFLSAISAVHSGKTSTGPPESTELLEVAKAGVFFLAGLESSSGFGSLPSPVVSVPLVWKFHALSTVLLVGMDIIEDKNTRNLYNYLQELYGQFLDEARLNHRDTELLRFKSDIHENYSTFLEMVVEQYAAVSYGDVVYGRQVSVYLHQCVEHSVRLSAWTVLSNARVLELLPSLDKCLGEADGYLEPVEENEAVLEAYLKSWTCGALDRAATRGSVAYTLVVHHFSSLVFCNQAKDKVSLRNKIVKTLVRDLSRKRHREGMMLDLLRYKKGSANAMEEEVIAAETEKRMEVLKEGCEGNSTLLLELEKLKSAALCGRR

[4] = molecular target: T3, IYO fused to split YFP (nYFP or cYFP); experiment: BiFC context, truncated AtRTR1
Source text: Applicants tested for the in vivo interaction between IYO and AtRTR1 through a bimolecular fluorescence complementation assay in epidermal cells from Nicotiana benthamiana leaves.

[5] = molecular target: T4, Rpb3 sub-unit from RNA Polymerase II fused to split YFP (UniProt Q39211); experiment: BiFC, split YFP (FIG. 8B)
T4 sequence (looked up): T1 sequence (looked up)

B1: IYO protein (AtMINIYO, Arabidopsis thaliana MINIYO, At4g38440) (protein)
chain: T3 sequence
binding [1]: binds | binding [2]: binds

B2: DUF408-containing N-terminal half of AtRTR1 (protein, not shown: large carriers)
chain: MAKDNEAIAINDAVHKLQLYMLENTTDQNQLFAARKLMSRSDYEDVVTERAIAKLCGYTLCQRFLPSDVSRRGKYRISLKDHKVYDLQETSKFCSAGCLIDSKTFSGSLQEARTLEFDSVKLNEILDLFGDSLEVKGSLDVNKDLDLSKLMIKENFGVRGEELSLEKWMGPSNAVEGYVPFDRSKSSNDSKATTQSNQEKHEMDFTSTVIMPDVNSVSKLPPQTKQASTVVESVDGKGKTVLKEQTVVPPTKKVSRFRREKEKEKKTFGVDGMGCAQEKTTVLPRKILSFCNEIEKDFKNFGFD
binding [3]: binds | binding [4]: binds

B3: IYO fused to split YFP (nYFP or cYFP) (protein, not shown: large carriers)
chain: T3 sequence
binding [5]: binds
